Test results reported in article PMC13015889.
No constants are given. Whether binding was seen depends on the method and setting. Binding seen in cells or lysates may run through a third protein. Here binding means that the protein was enriched with, or labelled near, the bait; the list need not be complete. Sequences can lack the tags named with a protein. Blank lines part the entries; values can stand above or below the binder they belong to.

Assays:
[1] = target: T1, ERECTA-HA-TbID fusion protein (Arabidopsis thaliana) (UniProt Q42371); assay: proximity labelling; ERECTA membrane TbID-PL: microsomal fractionation, microsomal versus cytosolic fractions
T1 sequence: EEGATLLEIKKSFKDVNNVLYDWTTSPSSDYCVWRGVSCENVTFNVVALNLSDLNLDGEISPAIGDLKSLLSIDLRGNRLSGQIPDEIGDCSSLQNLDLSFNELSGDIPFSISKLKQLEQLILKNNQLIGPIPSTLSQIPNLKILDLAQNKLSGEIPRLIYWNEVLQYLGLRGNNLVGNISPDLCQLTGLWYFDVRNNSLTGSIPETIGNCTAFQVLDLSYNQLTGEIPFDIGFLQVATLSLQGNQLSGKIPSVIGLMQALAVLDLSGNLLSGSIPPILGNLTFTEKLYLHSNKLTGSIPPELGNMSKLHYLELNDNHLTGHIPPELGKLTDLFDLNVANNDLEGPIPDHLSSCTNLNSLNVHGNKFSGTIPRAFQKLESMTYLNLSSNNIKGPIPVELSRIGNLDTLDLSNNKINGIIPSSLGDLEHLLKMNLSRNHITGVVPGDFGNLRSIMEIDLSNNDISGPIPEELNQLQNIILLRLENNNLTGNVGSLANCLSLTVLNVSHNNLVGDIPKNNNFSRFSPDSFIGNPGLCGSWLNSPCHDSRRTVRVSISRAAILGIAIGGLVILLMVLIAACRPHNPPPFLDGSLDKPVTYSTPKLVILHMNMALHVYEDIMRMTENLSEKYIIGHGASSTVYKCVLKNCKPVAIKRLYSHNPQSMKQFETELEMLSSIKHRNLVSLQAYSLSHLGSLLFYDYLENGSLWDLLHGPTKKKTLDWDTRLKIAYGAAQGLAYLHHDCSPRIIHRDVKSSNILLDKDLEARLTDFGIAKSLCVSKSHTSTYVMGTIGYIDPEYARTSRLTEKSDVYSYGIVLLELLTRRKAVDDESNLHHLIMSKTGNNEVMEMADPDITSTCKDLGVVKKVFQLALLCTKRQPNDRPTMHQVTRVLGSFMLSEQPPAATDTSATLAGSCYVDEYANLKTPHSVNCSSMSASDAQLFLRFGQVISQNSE

[2] = target: T1, ERECTA-HA-TbID fusion protein (Arabidopsis thaliana); assay: proximity labelling; optimized TbID-PL: ERECTA-HA-TbID seedlings with biotin (1 hour) compared to mock treated control (without biotin, 1 hour)
[3] = target: T1, ERECTA-HA-TbID fusion protein (Arabidopsis thaliana); assay: proximity labelling; TbID-PL: ERECTA-HA-TbID seedlings, 50 μM biotin 1 hour at room temperature; biotinylated proteins on streptavidin magnetic beads, LC-MS; ERECTA-HA-TbID vs er-105

binding [1]: binds
B1: LRR-RK HAESA-LIKE1 (HSL1) (receptor, UniProt Q9SGP2 16-996)
chain: LNQDGFILQQVKLSLDDPDSYLSSWNSNDASPCRWSGVSCAGDFSSVTSVDLSSANLAGPFPSVICRLSNLAHLSLYNNSINSTLPLNIAACKSLQTLDLSQNLLTGELPQTLADIPTLVHLDLTGNNFSGDIPASFGKFENLEVLSLVYNLLDGTIPPFLGNISTLKMLNLSYNPFSPSRIPPEFGNLTNLEVMWLTECHLVGQIPDSLGQLSKLVDLDLALNDLVGHIPPSLGGLTNVVQIELYNNSLTGEIPPELGNLKSLRLLDASMNQLTGKIPDELCRVPLESLNLYENNLEGELPASIALSPNLYEIRIFGNRLTGGLPKDLGLNSPLRWLDVSENEFSGDLPADLCAKGELEELLIIHNSFSGVIPESLADCRSLTRIRLAYNRFSGSVPTGFWGLPHVNLLELVNNSFSGEISKSIGGASNLSLLILSNNEFTGSLPEEIGSLDNLNQLSASGNKFSGSLPDSLMSLGELGTLDLHGNQFSGELTSGIKSWKKLNELNLADNEFTGKIPDEIGSLSVLNYLDLSGNMFSGKIPVSLQSLKLNQLNLSYNRLSGDLPPSLAKDMYKNSFIGNPGLCGDIKGLCGSENEAKKRGYVWLLRSIFVLAAMVLLAGVAWFYFKYRTFKKARAMERSKWTLMSFHKLGFSEHEILESLDEDNVIGAGASGKVYKVVLTNGETVAVKRLWTGSVKETGDCDPEKGYKPGVQDEAFEAEVETLGKIRHKNIVKLWCCCSTRDCKLLVYEYMPNGSLGDLLHSSKGGMLGWQTRFKIILDAAEGLSYLHHDSVPPIVHRDIKSNNILIDGDYGARVADFGVAKAVDLTGKAPKSMSVIAGSCGYIAPEYAYTLRVNEKSDIYSFGVVILEIVTRKRPVDPELGEKDLVKWVCSTLDQKGIEHVIDPKLDSCFKEEISKILNVGLLCTSPLPINRPSMRRVVKMLQEIGGGDEDSLHKIRDDKDGKLTPYYNEDTSDQGSIA

binding [2]: binds
binding [1]: binds
binding [3]: binds
B2: ANGUSTIFOLIA (protein, UniProt O23702 1-636)
chain: MSKIRSSATMPHRDQPSPASPHVVTLNCIEDCALEQDSLAGVAGVEYVPLSRIADGKIESATAVLLHSLAYLPRAAQRRLRPHQLILCLGSADRAVDSTLAADLGLRLVHVDTSRAEEIADTVMALILGLLRRTHLLSRHALSASGWLGSLQPLCRGMRRCRGMVLGIVGRSVSARYLASRSLAFKMSVLYFDVPEGDEERIRPSRFPRAARRMDTLNDLLAASDVISLHCALTNDTVQILNAECLQHIKPGAFLVNTGSCQLLDDCAVKQLLIDGTIAGCALDGAEGPQWMEAWVKEMPNVLILPRSADYSEEVWMEIREKAISILHSFFLDGVIPSNTVSDEEVEESEASEEEEQSPSKHEKLAIVESTSRQQGESTLTSTEIVRREASELKESLSPGQQHVSQNTAVKPEGRRSRSGKKAKKRHSQQKYMQKTDGSSGLNEESTSRRDDIAMSDTEEVLSSSSRCASPEDSRSRKTPLEVMQESSPNQLVMSSKKFIGKSSELLKDGYVVALYAKDLSGLHVSRQRTKNGGWFLDTLSNVSKRDPAAQFIIAYRNKDTVGLRSFAAGGKLLQINRRMEFVFASHSFDVWESWSLEGSLDECRLVNCRNSSAVLDVRVEILAMVGDDGITRWID
